Test results from publication doi:10.1101/2021.05.14.443827.
These are yes or no findings as the source states them, for the method shown. Binding seen in cells or lysates may run through a third protein. Here binding means that the protein was enriched with, or labelled near, the bait; the list need not be complete.

Legend:
[1] = target: SiiB-3×Flag (Salmonella enterica serovar Typhimurium); experiment: affinity purification with mass spectrometry
[2] = target: SiiA-3×Flag (Salmonella enterica serovar Typhimurium) (UniProt H9L4G5); experiment: affinity purification with mass spectrometry

| Substance | binding [1] | binding [2] |
| --- | --- | --- |
| CheM (from UniProt P02941 1-553) | binds | binds |
| Trg (from UniProt A0A0F6B1Q1) |  | binds |
